# Data: publication PMC12040169 (PLOS Biology, 2025)
# The list shows a part of the results.
# Tested on: T1, CTL2-GFP (C. trachomatis L2/434/Bu, GFP-expressing)
# T1 construct: L2/434/Bu, GFP-expressing
# Design: species or system HeLa; Intracellular C. trachomatis growth in HeLa cells, bulk GFP fluorescence relative to DMSO
# Settings: bulk GFP, single well; 28.5 h, 10 µM; inhibitor
row,SMILES,% of control remaining [%]
1,Cn1c(=O)c2c(ncn2CC(=O)NCCOc2ccccc2)n(C)c1=O [CBK304654],110.045
2,COc1cccc(CNc2cccc(C(=O)O)c2)c1OCc1ccc(Cl)cc1Cl [CBK074424],109.709
3,O=C(CN1CCOCC1)Nc1ccc(NC(=O)CN2CCOCC2)c(Cl)c1 [CBK264243],107.779
4,CN(C)C(=O)C1(Cc2ccccc2-c2ccccc2)CCN(C(=O)c2cccc(F)c2)CC1 [CBK285675],108.762
5,O=C1c2ccc(S(=O)(=O)c3ccc4c(c3)C(=O)N(CCO)C4=O)cc2C(=O)N1CCO [CBK023065],97.5824
6,NC(=O)C1CN(C(=O)CN2CCCc3ccccc32)c2ccccc2O1 (centres unmarked) [CBK295163],172.474
7,NC(=O)c1nc(-c2ccco2)nc2c1[nH]c(=O)n2-c1ccc(Cl)cc1 [CBK287545],147.219
8,O=C(CN1C(=O)[C@H]2CCCN2c2ncccc21)NCCc1c[nH]c2ccccc12 [CBK286206],86.0462
9,COc1ccc2c(c1OC)C(=O)N1C2SC(C)(C)C1C(=O)O (centres unmarked) [CBK011479],122.857
10,CCOc1ccc(-c2nc(-c3cccc(NC(=O)c4ccccc4C(=O)O)c3)no2)cc1 [CBK299832],119.458
11,CSCCC(NC(=O)c1c(C)oc2c1CCCC2)C(=O)O (centres unmarked) [CBK264029],100
12,CC(C)(C)NCC(O)COc1ccc(Cl)cc1Cl (centres unmarked) [CBK025597C],96.1665
13,CN1CCCC1CNCc1cn(-c2ccccc2)nc1-c1cccnc1 (centres unmarked) [CBK304490],67.371
14,Cc1csc(NC(=O)CN2CCC(c3ccccc3F)CC2)n1 [CBK283569],72.234
15,Nc1ncc(-c2ccc(C(=O)N3CCOCC3)cc2)nc1-c1ccc(CCC(=O)O)cc1 [CBK126368],95.5747
16,COc1ccc(S(=O)(=O)NC(C)C(=O)NCc2ccncc2)cc1C (centres unmarked) [CBK269347],82.5626
17,Cn1cnc(S(=O)(=O)N2CCC(C(=O)NC(c3ccccn3)c3cccs3)CC2)c1 (centres unmarked) [CBK060131],93.7563
18,O=C1Nc2cc(Cl)ccc2C(=O)N2CC[C@H](NS(=O)(=O)c3cccs3)[C@@H]12 [CBK289341],105.042
19,COc1ccc(C(=O)Nc2ccc(S(=O)(=O)N3CCN(C)CC3)cc2)cc1 [CBK267622],121.978
20,COc1ccc(/C=C(/C#N)C(=O)Nc2cccc(C)c2C)cc1C(=O)O [CBK262751],121.658
21,Cc1c(C(=O)N2CCCCC2)sc2nc(C(F)(F)F)nn12 [CBK006455],98.1861
22,O=C(CCC(=O)c1ccccc1)NC1CCc2ccccc21 (centres unmarked) [CBK003351],145.785
23,Cc1nnc(CN2CCOc3ccc(Br)cc3C2)o1 [CBK304079],133.032
24,Cc1c(S(=O)(=O)NCCN(C)C)sc2ccc(C(C)C)cc12 [CBK170357],97.1984
25,O=C(Nc1ccc2oc(-c3cccnc3)nc2c1)c1ccc(-c2cccc([N+](=O)[O-])c2)o1 [CBK262945],92.7403

# Structures from the list above containing an NH in an aromatic ring (two):
row,SMILES,% of control remaining [%]
7,NC(=O)c1nc(-c2ccco2)nc2c1[nH]c(=O)n2-c1ccc(Cl)cc1 [CBK287545],147.219
8,O=C(CN1C(=O)[C@H]2CCCN2c2ncccc21)NCCc1c[nH]c2ccccc12 [CBK286206],86.0462

# Carrying on:

row,SMILES,% of control remaining [%]
1,Cc1cn(S(=O)(=O)N(C)C)nc1-c1ccccc1 [CBK005210],156.817
2,CC(CN1CCOCC1)OC(=O)c1ccco1 (centres unmarked) [CBK264606C],117.253
3,Cc1cc(C(=O)O)c2[nH]c3c(c2c1)CCCC3 [CBK028885],116.883
4,O=C(O)c1ccc(CN2CCOC[C@H]2c2nc(-c3ccc(F)cc3)c[nH]2)cc1 [CBK289304],138.505
5,Cc1ccc(OC(C)C(=O)NNC(=O)c2ccc([N+](=O)[O-])cc2)cc1 (centres unmarked) [CBK269065],85.215
6,O=C(CCn1cccn1)Nc1ccc(OC2CCCC2)cc1 [CBK281861],113.654
7,CS(=O)(=O)N1CC2(CCN(CC3CCCCC3)CC2)c2ccccc21 [CBK084018],120.459
8,O=[N+]([O-])c1ccc(/C=N/c2cccc(-c3nc4ccccc4s3)c2)cc1 [CBK293918],139.212
9,O=C(C1CCC1)N1CCC2(CC1)Nc1cccnc1-n1cccc12 [CBK284505],74.0593
10,Cc1ccc(-c2ccc(CCC(=O)O)n2CC(=O)O)cc1 [CBK286922],137.239
11,C=CCn1c(COc2ccc(Cl)cc2)nnc1SCC(=O)O [CBK263171],96.7701
12,Cc1cc(Cl)c(OCCNCCO)c(Br)c1 [CBK265066G],72.9129
13,Cc1ccc(SCCNC(=O)CSc2n[nH]c(=O)n2C2CC2)cc1 [CBK295605],130.685
14,CSc1nnc(Cc2nnc(SC)n2-c2ccccc2)n1-c1ccccc1 [CBK267145],125.412
15,Cc1oc(C(=O)O)cc1CSCc1cc(C(=O)O)oc1C [CBK263275],125.978
16,c1ccc(Cn2cc(-c3nccnc3OC(c3ccccc3)c3ccccc3)cn2)cc1 [CBK107093],58.0993
17,O=C(CN1CCOCC1)N1CCC(Cn2cncn2)(C2CCCCC2)CC1 [CBK136803],103.895
18,CS(=O)(=O)N1CCCc2cc(-c3csc(-c4cnccn4)n3)ccc21 [CBK305239],114.42
19,O=C(c1ccccc1F)N1CCC(O)(c2cccnc2F)CC1 [CBK284356],128.385
20,CC(=O)N1CCCc2cc(C(O)CN3CCC(O)(c4ccc(F)cc4)CC3)ccc21 (centres unmarked) [CBK286481],145.403
21,CN(Cc1ccccc1)c1nc2c(c(=O)n(C)c(=O)n2C)n1CCSc1ncccn1 [CBK269564],120.418
22,COc1ccc(Cl)cc1N1CCN(C/C=C/c2ccccc2)CC1 [CBK126415],89.0426
23,CS(=O)(=O)N(Cc1ccc(Cl)cc1)c1ccc(C(=O)Nc2cccnc2)cc1 [CBK263334],88.3638
24,CN(C)Cc1cc(CN(C)C)c(O)c(C(C)(C)C)n1 [CBK260969],100
25,O=C(Nc1ccc(N2CCN(C(=O)c3ccccc3F)CC2)cc1)c1nc[nH]n1 [CBK269497],118.769
